Assay results reported in patent publication US20240207355A1 (L-BASE CO., LTD., priority 2021, published 2024).

Assay: peptide made by a vendor (solution-phase peptide synthesis; HATU, N,N-Diisopropylethylamine)
Settings: late stage modification step

| Substance | step yield [% yield] | final purity (method not given) |
| --- | --- | --- |
| 2-PhPh-AQTGTGKT | 31 |  |
| 3-PhPh-AQTGTGKT | 5 | over 90% |
| 4-MeOPh-AQTGTGKT | 10 | 89% |
| Ac-AQTGTGKT | 37 |  |
| Naphthyl-AQTGTGKT | 33 |  |
| Ph-AQTGTGKT | 33 |  |
